Literature values as cited in patent US20150274639A1, “METHODS OF USE FOR COMPOSITIONS COMPRISING A BIOCIDAL POLYAMINE” (Curza Global, LLC, priority 2013, published 2015).

Tested on: biofilms of MRSA and P. aeruginosa
Conditions: understanding of the inventors, no own test described; cited from earlier work

CC(C)(C)CC(C)(C)c1ccc(OCCOCC[N+](C)(C)Cc2ccccc2)cc1 [benzethonium chloride]
biofilm dispersal effect (comparison antimicrobials): not seen
